According to PubChem BioAssay AID248 (DTP/NCI, 2004):
The list shows only some results of the screen, not a fair sample: it is rich in T/C values a quarter to a half above the control, in often repeated tests (any T/C) and in doses without a T/C. Further doses and runs are listed elsewhere. T/C is the treated group as % of the vehicle group. Some doses have a count of surviving animals in place of a T/C: the source files T/C as zero there, which appears to mark a toxic dose or a test without result, not a measured value. Some doses without a T/C left all or most animals alive at the check, yet need not have been tolerated: the source hardly ever lists a survival T/C far under the control, and the zero likely stands for such cases as well. Counts of survivors are from the toxicity check (mostly the fifth day) where no day follows; animals may have died later. Schedules are NCI's codes, taken here to give the interval after Q, in days (D) or hours (H), and the number of doses after X. Some schedules carry Z or #; the key to these is not given. For survival time, the PubChem record calls one and a half times the control and up active, and a quarter to a half above the control has no call in these data; cut-offs in other NCI protocols can differ. Some T/C values carry the count of animals alive at the toxicity check (mostly the fifth day); where none is given, no animal had died by that day.

Test system: L1210 leukemia ip in BDF1 mice, survival T/C
Assay: NCI In Vivo Anticancer Drug Screen. Data for tumor model L1210 Leukemia (intraperitoneal) in B6D2F1 (BDF1) mice
Conditions: T/C endpoint: mean survival time, higher T/C = longer survival
[1] = dose: 400.0 mg/kg/injection, schedule: Q01DX009 (ip), vehicle: saline
[2] = dose: 400.0 mg/kg/injection, schedule: Q04DX003 (ip), vehicle: saline with Tween-80
[3] = dose: 100.0 mg/kg/injection, schedule: Q01DX009 (ip), vehicle: Klucel (hydroxypropylcellulose) (HPC)
[4] = dose: 400.0 mg/kg/injection, schedule: Q01DX009 (ip), vehicle: Klucel (hydroxypropylcellulose) (HPC)
[5] = dose: 200.0 mg/kg/injection, schedule: Q01DX009 (ip), vehicle: saline
[6] = dose: 100.0 mg/kg/injection, schedule: Q01DX009 (ip), vehicle: saline

CC1CN=C(c2ccc(N)cc2)S1 (stereo not drawn)
survivor count (dose: 350.0 mg/kg/injection, schedule: Q04DX003 (ip), vehicle: Klucel (hydroxypropylcellulose) (HPC)): 0 of 6

CC(O)Cn1cnc2c1c(=O)n(C)c(=O)n2C (stereo not drawn)
survivor count [1]: 6 of 6

Clc1nc2ccccc2nc1Cl
survivor count (dose: 50.0 mg/kg/injection, schedule: Q04DX003 (sc), vehicle: olive oil, sesame oil, peanut oil): 1 of 3 | survivor count (dose: 100.0 mg/kg/injection, schedule: Q04DX003 (sc), vehicle: olive oil, sesame oil, peanut oil): 0 of 3 | survivor count (dose: 200.0 mg/kg/injection, schedule: Q04DX003 (sc), vehicle: olive oil, sesame oil, peanut oil): 0 of 3 | survivor count (dose: 400.0 mg/kg/injection, schedule: Q04DX003 (sc), vehicle: olive oil, sesame oil, peanut oil): 0 of 3

COC(=O)C(CCCCN=Cc1ccccc1O)N=Cc1ccccc1O.[Ni] (stereo not drawn)
survivor count [2]: 0 of 6

COC1CC2C(NC(C)=O)CCc3cc(C)c(C)c(C)c3C2CCC1O.[Cl][Zn][Cl] (stereo not drawn)
survivor count (dose: 75.0 mg/kg/injection, schedule: Q01DX001 (ip), vehicle: acetone): 0 of 6 | survivor count (dose: 150.0 mg/kg/injection, schedule: Q01DX001 (ip), vehicle: acetone): 1 of 6 | survivor count (dose: 300.0 mg/kg/injection, schedule: Q01DX001 (ip), vehicle: acetone): 0 of 6

CC1=C2CCC(C)C23C2C(=O)OC(=O)C2C1C1C(=O)OC(=O)C13 (stereo not drawn)
survivor count (dose: 100.0 mg/kg/injection, schedule: Q04DX003 (ip), vehicle: saline): 3 of 6 | survivor count (dose: 200.0 mg/kg/injection, schedule: Q04DX003 (ip), vehicle: saline): 1 of 6 | survivor count (dose: 400.0 mg/kg/injection, schedule: Q04DX003 (ip), vehicle: saline): 0 of 6

O=C(O)c1c(-c2nccc3ccccc23)[nH]c(-c2ccccc2)c1S(=O)(=O)O
survivor count (dose: 300.0 mg/kg/injection, schedule: Q01DX001 (ip), vehicle: saline): 2 of 6

C=CCNC(=S)NCc1ccc(Cl)cc1
survivor count [3]: 3 of 6 | survivor count (dose: 150.0 mg/kg/injection, schedule: Q01DX009 (ip), vehicle: Klucel (hydroxypropylcellulose) (HPC)): 0 of 6 | survivor count (dose: 200.0 mg/kg/injection, schedule: Q04DX002 (ip), vehicle: Klucel (hydroxypropylcellulose) (HPC)): 0 of 3 | survivor count (dose: 225.0 mg/kg/injection, schedule: Q01DX009 (ip), vehicle: Klucel (hydroxypropylcellulose) (HPC)): 0 of 6 | survivor count (dose: 335.0 mg/kg/injection, schedule: Q01DX009 (ip), vehicle: Klucel (hydroxypropylcellulose) (HPC)): 0 of 6 | survivor count (dose: 400.0 mg/kg/injection, schedule: Q04DX002 (ip), vehicle: Klucel (hydroxypropylcellulose) (HPC)): 0 of 3

O=[N+]([O-])c1ccc(/C=C/C=C/c2ccc(Cl)cc2Cl)cc1
survivor count (dose: 400.0 mg/kg/injection, schedule: Q01DX009 (ip), vehicle: saline with Tween-80): 5 of 6

CN=C(NCCCN1CCOCC1)c1ccc(NC(=O)c2ccc(C(=O)Nc3ccc(C(=NC)NCCCN4CCOCC4)cc3)cc2)cc1
T/C (dose: 50.0 mg/kg/injection, schedule: Q01DX Z (ip), vehicle: water): 137 % of control [4 of 6 alive] | survivor count (dose: 100.0 mg/kg/injection, schedule: Q01DX Z (ip), vehicle: water): 0 of 6

COc1cc(/C=N/NC(=O)CN(C)C)cc(OC)c1N(CCCl)CCCl
T/C [3]: 129 % of control | survivor count (dose: 200.0 mg/kg/injection, schedule: Q01DX009 (ip), vehicle: Klucel (hydroxypropylcellulose) (HPC)): 3 of 6 | survivor count [4]: 0 of 6

O=C1C=CC(=O)N1c1ccc2c(c1)Cc1ccccc1-2
survivor count (dose: 200.0 mg/kg/injection, schedule: Q04DX003 (ip), vehicle: saline with Tween-80): 0 of 6 | survivor count [2]: 0 of 6

CCCCN(CCCC)CCCNC(=S)Nc1ccccc1
survivor count [4]: 0 of 6

C=C1CC(CCCC2CC(=C)C(=O)O2)OC1=O (stereo not drawn)
survivor count (dose: 400.0 mg/kg/injection, schedule: Q04DX002 (ip), vehicle: saline): 1 of 3

C[S+]1Cc2ccccc2C1
survivor count [2]: 0 of 6

O=S(=O)(NC(=S)c1ccccc1)c1ccccc1
survivor count [5]: 3 of 3

CC(C)(C)c1ccc(OCc2cnc[nH]2)cc1
survivor count [6]: 3 of 6 | survivor count [5]: 0 of 6 | survivor count [1]: 0 of 6

C/C(=N/NC(N)=O)C1CC2CCC1C2 (stereo not drawn)
survivor count (dose: 400.0 mg/kg/injection, schedule: Q01DX001 (ip), vehicle: saline): 0 of 6 | survivor count (dose: 400.0 mg/kg/injection, schedule: Q01DX009 (ip), vehicle: gum acacia): 2 of 6

N#CCCCC1(CCCC#N)OCCO1
survivor count [6]: 6 of 6
